Source: PubChem BioAssay AID652272 (Drosophila RNAi Screening Center, 2013)
Test: 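Genes whose knock-down decreases or increases Hedgehog reporter output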 (primary screen). Cell system: Drosophila clone 8 (Cl8) cells. Reagent: long dsRNA against Drosophila genes. Read-out: 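Firefly light from a Hedgehog-responsive ptc promoter reporter and Renilla reference light, both read on a plate reader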. Reading the numbers: firefly Hh reporter signal: higher = more ptc reporter light; Renilla reference signal: higher = more Renilla control light. Hit rule: 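Called a hit if the two-replicate mean z-score lies below -2 or above +3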. Calls: active = hit: reporter lowered or raised; inactive = not a hit.
In all, the deposit lists about 21,000 reagents; shown is an unselected part of those with a known target gene and a result. Over the whole deposit, 503 (2.4%) are marked active. 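Raw plate light values, not normalised; calls rest on replicate z-scores that were not deposited; hits include reporter decreases as well as increases.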 Reagents against one gene are numbered here. Reagent sequences are not shown. Not given: the amount of reagent, the time to read-out.

After knock-down of Octbeta3R #1, the record shows firefly Hh reporter signal, replicate 1 = 56957; firefly Hh reporter signal, replicate 2 = 85810; Renilla reference signal, replicate 1 = 2375; Renilla reference signal, replicate 2 = 2290; inactive.
With knock-down of Octbeta3R #2, the record shows firefly Hh reporter signal, replicate 1 = 80521; firefly Hh reporter signal, replicate 2 = 72048; Renilla reference signal, replicate 1 = 2233; Renilla reference signal, replicate 2 = 2036; inactive.
Against AOX3, the values are firefly Hh reporter signal, replicate 1 = 2.05e5; firefly Hh reporter signal, replicate 2 = 76769; Renilla reference signal, replicate 1 = 7904; Renilla reference signal, replicate 2 = 1008; inactive.
nau scored firefly Hh reporter signal, replicate 1 = 4.37e5; firefly Hh reporter signal, replicate 2 = 1.01e5; Renilla reference signal, replicate 1 = 22896; Renilla reference signal, replicate 2 = 3156; inactive.
For Mal-B2, the values are firefly Hh reporter signal, replicate 1 = 5.97e5; firefly Hh reporter signal, replicate 2 = 77019; Renilla reference signal, replicate 1 = 3680; Renilla reference signal, replicate 2 = 3680; inactive.
With knock-down of mRpS35, the record shows firefly Hh reporter signal, replicate 1 = 52280; firefly Hh reporter signal, replicate 2 = 33136; Renilla reference signal, replicate 1 = 1522; Renilla reference signal, replicate 2 = 2792; inactive.
Against CG18095 the deposit lists firefly Hh reporter signal, replicate 1 = 1.61e5; firefly Hh reporter signal, replicate 2 = 63648; Renilla reference signal, replicate 1 = 4176; Renilla reference signal, replicate 2 = 5488; inactive.
With knock-down of CG31272, the record shows firefly Hh reporter signal, replicate 1 = 69718; firefly Hh reporter signal, replicate 2 = 1.23e5; Renilla reference signal, replicate 1 = 2065; Renilla reference signal, replicate 2 = 3606; inactive.
Silencing of CG18135 resulted in: firefly Hh reporter signal, replicate 1 = 1.25e5; firefly Hh reporter signal, replicate 2 = 71329; Renilla reference signal, replicate 1 = 4886; Renilla reference signal, replicate 2 = 2585; inactive.
Depletion of retinin gave: firefly Hh reporter signal, replicate 1 = 95075; Renilla reference signal, replicate 1 = 4584; Renilla reference signal, replicate 2 = 2737; inactive.
For Dpy-30L1, the values are firefly Hh reporter signal, replicate 1 = 1.02e5; firefly Hh reporter signal, replicate 2 = 48845; Renilla reference signal, replicate 1 = 3180; Renilla reference signal, replicate 2 = 4906; inactive.
Cby showed firefly Hh reporter signal, replicate 1 = 7.79e5; firefly Hh reporter signal, replicate 2 = 1.77e5; Renilla reference signal, replicate 1 = 37728; Renilla reference signal, replicate 2 = 2987; inactive.
CG10862 showed firefly Hh reporter signal, replicate 1 = 80528; firefly Hh reporter signal, replicate 2 = 44264; Renilla reference signal, replicate 1 = 2256; Renilla reference signal, replicate 2 = 2788; inactive.
Knock-down of Ppi1 came out at: firefly Hh reporter signal, replicate 1 = 73015; firefly Hh reporter signal, replicate 2 = 48519; Renilla reference signal, replicate 1 = 1625; Renilla reference signal, replicate 2 = 1632; inactive.
Silencing of Hr4 #1 came out at: firefly Hh reporter signal, replicate 1 = 2.10e5; firefly Hh reporter signal, replicate 2 = 1.34e5; firefly Hh reporter signal, replicate 3 = 3.69e5; Renilla reference signal, replicate 1 = 2119; Renilla reference signal, replicate 2 = 5328; active.
Against Hr4 #2, the entry reads firefly Hh reporter signal, replicate 1 = 87024; firefly Hh reporter signal, replicate 2 = 89538; Renilla reference signal, replicate 1 = 3878; Renilla reference signal, replicate 2 = 4224; inactive.
Knock-down of Prat resulted in: firefly Hh reporter signal, replicate 1 = 1.29e5; firefly Hh reporter signal, replicate 2 = 1.30e5; Renilla reference signal, replicate 1 = 3965; Renilla reference signal, replicate 2 = 3766; inactive.
Silencing of dpr16 #1 came out at: firefly Hh reporter signal, replicate 1 = 86864; firefly Hh reporter signal, replicate 2 = 1.16e5; Renilla reference signal, replicate 1 = 3789; Renilla reference signal, replicate 2 = 3356; inactive.
For dpr16 #2, the values are firefly Hh reporter signal, replicate 1 = 5.19e5; firefly Hh reporter signal, replicate 2 = 96296; Renilla reference signal, replicate 1 = 3397; Renilla reference signal, replicate 2 = 3397; inactive.
For flz the deposit lists firefly Hh reporter signal, replicate 1 = 93306; firefly Hh reporter signal, replicate 2 = 63978; Renilla reference signal, replicate 1 = 2548; Renilla reference signal, replicate 2 = 6529; inactive.
Against CG13002, the values are firefly Hh reporter signal, replicate 1 = 78171; firefly Hh reporter signal, replicate 2 = 1.68e5; Renilla reference signal, replicate 1 = 1985; Renilla reference signal, replicate 2 = 6700; inactive.
For Eglp4, the entry reads firefly Hh reporter signal, replicate 1 = 78315; firefly Hh reporter signal, replicate 2 = 66445; Renilla reference signal, replicate 1 = 2091; Renilla reference signal, replicate 2 = 6682; inactive.
For spirit, the entry reads firefly Hh reporter signal, replicate 1 = 75092; firefly Hh reporter signal, replicate 2 = 75200; Renilla reference signal, replicate 1 = 1989; Renilla reference signal, replicate 2 = 2080; inactive.
DNaseII showed firefly Hh reporter signal, replicate 1 = 1.18e5; firefly Hh reporter signal, replicate 2 = 66843; Renilla reference signal, replicate 1 = 4986; Renilla reference signal, replicate 2 = 2665; inactive.
Polr3B scored firefly Hh reporter signal, replicate 1 = 61345; firefly Hh reporter signal, replicate 2 = 49163; Renilla reference signal, replicate 1 = 2992; Renilla reference signal, replicate 2 = 1994; inactive.
Cyp6d2 showed firefly Hh reporter signal, replicate 1 = 1.15e5; firefly Hh reporter signal, replicate 2 = 4.85e5; firefly Hh reporter signal, replicate 3 = 66529; Renilla reference signal, replicate 1 = 2828; Renilla reference signal, replicate 2 = 2920; inactive.
glo gave firefly Hh reporter signal, replicate 1 = 1.13e5; firefly Hh reporter signal, replicate 2 = 1.22e5; Renilla reference signal, replicate 1 = 4275; Renilla reference signal, replicate 2 = 5011; inactive.
